# Read-outs that look alike come from different tables or passages of the source. These are yes or no findings as the source states them, for the method shown. In cells and extracts the contact can be indirect. A yes stands for co-enrichment or nearness to the bait. Other partners may have been found. For some assays here: No binding means not detected with the bait.
# The chains behind the UniProt entries cited, without tags or fusion partners. Where a name states a change or a piece, a line headed by the entry shows the natural chain unless it says otherwise.
# UniProt F7W245: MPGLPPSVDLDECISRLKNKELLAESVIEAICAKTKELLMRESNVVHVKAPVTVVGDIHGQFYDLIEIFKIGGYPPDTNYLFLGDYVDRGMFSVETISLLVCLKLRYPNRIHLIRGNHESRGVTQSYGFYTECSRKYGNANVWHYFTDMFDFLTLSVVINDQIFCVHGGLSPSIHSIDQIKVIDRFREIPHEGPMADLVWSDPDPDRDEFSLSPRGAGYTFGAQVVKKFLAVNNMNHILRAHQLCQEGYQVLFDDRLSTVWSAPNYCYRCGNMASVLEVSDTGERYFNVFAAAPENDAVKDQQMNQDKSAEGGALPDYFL
# UniProt F7VP17: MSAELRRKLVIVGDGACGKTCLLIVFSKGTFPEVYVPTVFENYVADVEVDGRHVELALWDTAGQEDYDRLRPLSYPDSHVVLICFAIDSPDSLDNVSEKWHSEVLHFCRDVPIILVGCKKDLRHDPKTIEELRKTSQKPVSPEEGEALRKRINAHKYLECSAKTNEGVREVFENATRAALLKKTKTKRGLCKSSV
# How the values were obtained:
# [1] = molecular target: NTAP-PP2Ac1 (catalytic subunit 1 of protein phosphatase 2A with an N-terminal TAP tag) (Sordaria macrospora) (UniProt F7W245); assay: affinity purification with mass spectrometry; tandem affinity purification (TAP) with NTAP-PP2Ac1 as bait from protein extract of the S. macrospora Δpp2Ac1::ntap-pp2Ac1 strain; TEV cleavage with AcTEV; tryptic digestion and MudPIT MS; four replicates; unspecific background and ribosomal proteins subtracted
# [2] = molecular target: NTAP-PP2Ac1 (catalytic subunit 1 of protein phosphatase 2A with an N-terminal TAP tag) (Sordaria macrospora) (UniProt F7W245); assay: as above; remark: listed apart in the source
binding [1],binding [2],Molecule
binds,–,"RHO1, CWI pathway component (from UniProt F7VP17)"
–,binds,"SMAC_00681, hypothetical protein of unknown function (protein, UniProt F7VMS7 1-695) MASQPRNTYNAPGFLPNGAAPHQGPVPGATPLLPNQGRVLQTGPIRVLCIADVRGNLRSLNDLAKSARADYIIHTGDFGFYDETSLERIAEKTLKHVAQYSPLISESTKKAIAQAAAGPVKSRFPASELPLSELPLLISGELKLDVPVYTVWGACEDVRVLEKFRSGEYKVPNLFVIDESRSKLLEIGGVKLRLLGLGGAVVMHKLFDNGEGRTTIAGGQGTMWTTLLQMGELVDTANRVYDPTETRIFITHASPAREGILNQLSVTLKADFSISAGLHFRYGSSYNEFSVNPTLDHYRGKLAASKASFNDVWETVRSEVEPAIQQNDVQQTLLKNALSVVEKMPTTAAGGNPFGGAAAGQSVAALGQVDESAFKNMWNFNLADAAFGWLVLEIHDGRIGTEMRAQGFNFSHRGAKQPVNAAQGAVPASAGGANPVPTGPAASTPIQSAAQPAPAVPAVPVVPKQAPAQTAKPVAPSPAPTQPKAATPQPAPAASPASRESEKPASAPSNGASNNPEPTPSPAPKSAVENMIGLFVMQPPSDDAIPDLFAAEDKAKIVKVDKWGQTNRVVIFKTVEDRDGALDRLPQEFKTRGSGSDDRNKPLIKVFNPPASRPFNNRGGAGTWASSRGGREGTQSGYRSAGGGTASDSEGAGRRGGRGGSRGGRGGERGGRGSRRGGLKGDGSPATTSATPADS"
–,binds,"PP2A scaffold protein PP2AA, endogenous (protein, UniProt F7VS87 1-635) MADATNANDELFPIAVLIDELKHDEVVLRLNAIHRLSTIALALGPERTREELIPFLDESVEDEDEVLVALSEELGNFVEYVGGPAWGHVLLSPLENLAAIEEPVVRDKAVESLNKICTELSSQQVEEYFIPLTIRLSKADWFTSKVSGCGLYTTPYSKVSPPIQEQLRQQFGQLVHDETPMVRRQAATNMAKFVKEMPTAIVVEEMIPMFQHLAGDDQDSVRLLTVEILISIAEVVPKEQQSSHGVLLTSLRSLIEDKSWRVRYMIADRFEKIAKAVDEEVVSRDLVPAFVKLLKDNEAEVRTAIAGQIPGFCALVDRNVLLNDIMGSVEDLVSDSSQHVRAALGTQISGLAPILGKQETIDHLLPMFLQMLKDEFPEVRLHIISKLELVNQVIGIDLLSQSLLPAIVQLAEDKQWRVRLAIIDYIPLLASQLGVKFFDEKLSQLCMGWLGDTVFSIREAATHNLRKLTEVFGVEWASEAIIPKVMAMGGHPNYLYRMTTCFAITTLATVVSLDVIAKSILPMLEKLTADSIPNIRFNVAKTYGVIIGVLRRLPDEGTIYTLEKEGKAATPSPKGQELIQQRIMPCLEKLQKDDDVDVRYFATTAAAQATGPLMGAATEAGNPIPSGGEPMNTSP"
–,no binding,"PRO11 (striatin homolog), endogenous (protein, UniProt Q70M86 1-845) MGTNGVHVSFGAGHEMGGVMGNGSGQPPATEYTLQGVMRFLQTEWHRHERDRNAWEIEKQEMRARIANLEGQARRADATQKALKRYVSILEKKVKEQSAALKSGGKEKGVEDEAEAEDNKTKLDRSALIQEKLRPNTKLSGAPNEAENVEIGPPDDESARNELKTFLDQCQAEFTYLMVTPANPQPPRESPPLPILDDFREGEALNQQLEQSYQRSQQSQIRDLLAQQAAAANATNVAAVQSQQQQPQQQQHAVGPRPQTNQPPKGYGELAQGAPMERSSRGQQLHDILKSGETPDWSASMQSQPVEEPTSALSKAPPMVRGDGREPAVPKSASTTDAWDFNESNFQDPNAMPQPTPQQSFSSRPDTDAFPSAENLTKSPNRGALSHRRKSSSGMARRRSAEHELSLGSLQQKAEGTMFKFRFGLRGHLDVVRTVIFSGGGSPGEPEICTAGDDGLVKRFHIPDRHIGQRNADGDLDVAADFTHRGHSGAVLSLASWSPSPNFSTGGRAQGDGWIFSGGQDATIRVWERGRVDPKATLDGHTDAVWALCVLPTNLGAIFGQTNSHGPPDRILLVSGAADGTVKVWAVSAPPQLTSPQPGPGRRGPGGRVRGNSMSSGSAFPSSPQPTTASNSPFHHTLVHTIKRANSEASPTCITALSPNGETFAVSYADAAIIVYDTRSGEEIGTMASLDTYDGTNNTAVNAVVATTVGLDQTQGPGGEDESGGGPTGGGRSMAGSGVEGTIISGHEDRYIRFFDANSGQCTYNMLAHPGSVSSLSLSPDGRELVSAGHDMSLRFWSLETRSCTQEMTCHRSMRGEGVCAVVWSQDGRWVVSSGGDGMVKVYAR"
–,binds,"CDC55, B-type regulatory subunit of PP2A (protein, UniProt F7W199 1-481) MVETDTNSPTWKFTQCFGDKGDVEDITEADIISTVEFDHTGNYLATGDKGGRVVLFERNETKKTCEYKFHTEFQSHEPEFDYLKSLEIEEKINKIKWCRRQNASHYLLSTNDKTIKLWKVFEKSLKVVAENNLSHDLTPANAAGGGGAPRALPHTHFRSPADLKLPRLTHHDTVVAAVPRRTYANAHAYHINSISVNSDGETFISSDDLRINLWNLNIQDQSFNIVDIKPANMEELTEVITAAEFHPLSCNWFMYASSKGTIKLADMRERALCDQHAKMFEQEEDPSSRSFFSEIISSISDVRFSHDGRYILSRDYLTVKIWDVNMERQPVKTIPIHEHLRPRLCDTYENDSIFDKFEVVFSGDAKNVMTGSYNNNFMIYPSDPDKEVEVVLQADKSAFKAKKVGVPTPINSSTSPTANGGKKGNSRAGSPAAAGQGQRMRKETDADQIDFNKKILHMSWHPFEDSIAIAATNNLFVFSAL"

# Source: paper PMC4916389
